{"source": "the supplement of paper PMC3334620", "note": "In all, about 33,000 sequences were measured (“E-score (-0.5 to 0.5)”: median about -8e-05, highest 2% from about 0.23 on). The list shows a part of the results."}
{"molecular_target": "T1, Nrg2 (UniProt P38082)", "T1 sequence": "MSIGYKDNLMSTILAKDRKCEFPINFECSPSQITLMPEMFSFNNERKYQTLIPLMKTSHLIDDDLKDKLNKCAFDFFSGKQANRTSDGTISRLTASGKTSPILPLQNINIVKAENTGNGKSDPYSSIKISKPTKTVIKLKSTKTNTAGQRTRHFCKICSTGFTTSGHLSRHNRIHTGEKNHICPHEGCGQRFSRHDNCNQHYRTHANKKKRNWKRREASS", "test": "PBM E-score (8-mer binding enrichment) (E-score (-0.5 to 0.5)); higher = stronger / more preferred TF binding", "conditions": "protein concentration: 100 nM; construct: GST-full length", "summary_of_the_method": "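E-scores (a modified Wilcoxon-Mann-Whitney statistic) were assigned by the Universal PBM Analysis Suite to every ungapped eight-base word pooled with its reverse complement. The input came from universal all-10-mer Agilent arrays made double-stranded by primer extension and probed with GST-tagged yeast transcription factors at about 100-200 nM. Fluorescent anti-GST detected bound protein, and masliner normalised the scans.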"}
{"sequence": "CTATATCA", "PBM E-score": 0.164}
{"sequence": "AAAATGTA", "PBM E-score": 0.0718}
{"sequence": "ACGTTCGA", "PBM E-score": -0.0272}
{"sequence": "AGATGAAC", "PBM E-score": 0.109}
{"sequence": "ATGACCAG", "PBM E-score": 0.00391}
{"sequence": "CAGGATAC", "PBM E-score": 0.0332}
{"sequence": "AATCATAT", "PBM E-score": 0.0761}
{"sequence": "TAGGGAAA", "PBM E-score": -0.0116}
{"sequence": "CTGTGTAA", "PBM E-score": 0.0137}
{"sequence": "GTGACAAC", "PBM E-score": 0.112}
{"sequence": "AAGCCTCC", "PBM E-score": -0.222}
{"sequence": "CTTTCATA", "PBM E-score": 0.103}
{"sequence": "GAGATGAA", "PBM E-score": -0.00016}
{"sequence": "AAAATAGG", "PBM E-score": 0.164}
{"sequence": "CCGGCGCC", "PBM E-score": 0.12}
{"sequence": "GCTAGAGA", "PBM E-score": -0.0879}
{"sequence": "ACGGTTCG", "PBM E-score": -0.169}
{"sequence": "CGACTCTC", "PBM E-score": -0.0799}
{"sequence": "GAAAGACC", "PBM E-score": -0.132}
{"sequence": "TACACAAA", "PBM E-score": 0.0458}
{"sequence": "CCACCCAG", "PBM E-score": 0.03}
{"sequence": "CCGCCAAA", "PBM E-score": 0.111}
{"sequence": "AACTACAC", "PBM E-score": 0.0363}
{"sequence": "AATAGCTA", "PBM E-score": 0.04}
{"sequence": "GATAGTCA", "PBM E-score": -0.0399}
{"sequence": "GTATGGAA", "PBM E-score": -0.0935}
{"sequence": "CCTGTGAA", "PBM E-score": 0.101}
{"sequence": "GCTCTTAA", "PBM E-score": -0.097}
{"sequence": "GGGGTAGA", "PBM E-score": 0.0331}
{"sequence": "AAAGCATA", "PBM E-score": -0.105}
{"sequence": "ATCTATAA", "PBM E-score": -0.00946}
{"sequence": "CAGGTACA", "PBM E-score": -0.0461}
{"sequence": "CATATTCC", "PBM E-score": -0.128}
{"sequence": "GGGCTCCA", "PBM E-score": -0.377}
{"sequence": "ATGTACAC", "PBM E-score": -0.016}
{"sequence": "CCCGGGGC", "PBM E-score": -0.0967}
{"sequence": "CCCTGACG", "PBM E-score": 0.138}
{"sequence": "CACGCGGA", "PBM E-score": 0.234}
{"sequence": "GAACCATC", "PBM E-score": 0.044}
{"sequence": "GACCAAAA", "PBM E-score": 0.117}
{"sequence": "GCGGATAA", "PBM E-score": 0.171}
{"sequence": "AACTCAGT", "PBM E-score": 0.106}
{"sequence": "AGGCCTCC", "PBM E-score": -0.158}
{"sequence": "GGATTCAC", "PBM E-score": 0.0567}
{"sequence": "ATTGGCTG", "PBM E-score": -0.219}
{"sequence": "TATTGTAA", "PBM E-score": -0.042}
{"sequence": "TCACCTCA", "PBM E-score": -0.0482}
{"sequence": "CGGCTCAA", "PBM E-score": 0.0638}
{"sequence": "AGCCCTAG", "PBM E-score": -0.16}
{"sequence": "GCTAACCA", "PBM E-score": -0.172}
{"sequence": "CGTGATGA", "PBM E-score": -0.0445}
{"sequence": "CATTAAAA", "PBM E-score": 0.252}
{"sequence": "ATGCTAAT", "PBM E-score": 0.0728}
{"sequence": "AAGTCGCT", "PBM E-score": -0.122}
{"sequence": "GGAGGCCC", "PBM E-score": -0.315}
{"sequence": "CGCCGGGC", "PBM E-score": 0.0337}
{"sequence": "GAGCTTAC", "PBM E-score": -0.0886}
{"sequence": "AAAATCTC", "PBM E-score": 0.101}
{"sequence": "CTTCGAGC", "PBM E-score": 0.0305}
{"sequence": "GCCAAGAC", "PBM E-score": -0.164}
{"sequence": "CTGACCAC", "PBM E-score": 0.0705}
{"sequence": "ATTCGCCA", "PBM E-score": 0.158}
{"sequence": "CTAGTTTA", "PBM E-score": -0.106}
{"sequence": "CATTTACA", "PBM E-score": 0.053}
{"sequence": "CGCGCTTA", "PBM E-score": 0.254}
{"sequence": "AAAGTGGA", "PBM E-score": -0.0315}
{"sequence": "ACTCATAT", "PBM E-score": -0.028}
{"sequence": "AGGACGAG", "PBM E-score": -0.0678}
{"sequence": "GGTTGATA", "PBM E-score": 0.138}
{"sequence": "GAGAGGCC", "PBM E-score": -0.0877}
{"sequence": "AATTGTGT", "PBM E-score": 0.0191}
{"sequence": "ACTTGACG", "PBM E-score": -0.112}
{"sequence": "AAGGCCTA", "PBM E-score": -0.185}
{"sequence": "CTTTGCGA", "PBM E-score": 0.124}
{"sequence": "ACCCTCTG", "PBM E-score": 0.00968}
{"sequence": "CGTGTTAG", "PBM E-score": 0.0392}
{"sequence": "GAAAGGTC", "PBM E-score": -0.135}
{"sequence": "GCATGTTA", "PBM E-score": 0.0871}
{"sequence": "ACGACGTA", "PBM E-score": -0.166}
{"sequence": "GCGCAACA", "PBM E-score": 0.0618}
{"sequence": "CCGGTAAC", "PBM E-score": -0.136}
{"sequence": "AACTACCT", "PBM E-score": 0.101}
{"sequence": "ATACGGTG", "PBM E-score": -0.0251}
{"sequence": "ATCAACAA", "PBM E-score": 0.155}
{"sequence": "ACGATGCC", "PBM E-score": -0.229}
{"sequence": "ATAAGTTG", "PBM E-score": 0.0867}
{"sequence": "CTAAAGCC", "PBM E-score": -0.243}
{"sequence": "AGGAAGTG", "PBM E-score": 0.0526}
{"sequence": "GTACGTGA", "PBM E-score": -0.0739}
{"sequence": "GCGTCTTA", "PBM E-score": -0.156}
{"sequence": "GGCTGAAC", "PBM E-score": 0.113}
{"sequence": "ATGAAATG", "PBM E-score": 0.143}
{"sequence": "CCGACACC", "PBM E-score": -0.284}
{"sequence": "AAATAGCT", "PBM E-score": -0.00795}
{"sequence": "GTGCGCTA", "PBM E-score": 0.0902}
{"sequence": "CCCATTTC", "PBM E-score": 0.0474}
{"sequence": "CACGCTTC", "PBM E-score": -0.164}
{"sequence": "CTGTTCAA", "PBM E-score": -0.0123}
{"sequence": "CTATCATA", "PBM E-score": 0.125}
{"sequence": "AAACGACT", "PBM E-score": 0.0569}
{"sequence": "TATTTTGA", "PBM E-score": -0.0616}
{"sequence": "CAGCATCA", "PBM E-score": 0.00269}
{"sequence": "GCCATTTA", "PBM E-score": -0.0542}
{"sequence": "GCATGCCA", "PBM E-score": -0.00101}
{"sequence": "ATGGGAAT", "PBM E-score": -0.0749}
{"sequence": "TCGTCCAA", "PBM E-score": 0.0325}
{"sequence": "CAAAGGCA", "PBM E-score": -0.173}
{"sequence": "CAAGTTAA", "PBM E-score": 0.0273}
{"sequence": "TTCCCCAA", "PBM E-score": 0.122}
{"sequence": "ACTATACT", "PBM E-score": 0.179}
{"sequence": "CGGTACCC", "PBM E-score": -0.154}
{"sequence": "CCCAGCAG", "PBM E-score": 0.0729}
{"sequence": "CCGCATGC", "PBM E-score": -0.0299}
{"sequence": "AACTGGCA", "PBM E-score": 0.0237}
{"sequence": "AACTCAAT", "PBM E-score": 0.0129}
{"sequence": "GCGAATAC", "PBM E-score": 0.102}
{"sequence": "AACAATGG", "PBM E-score": 0.0225}
{"sequence": "TAGACAAA", "PBM E-score": -0.0662}
{"sequence": "CCAGGCCA", "PBM E-score": -0.182}
{"sequence": "AATGTTCG", "PBM E-score": 0.0723}
{"sequence": "CCGTCCCC", "PBM E-score": -0.223}
{"sequence": "ATACTTTA", "PBM E-score": 0.0828}
{"sequence": "ATCTCTAG", "PBM E-score": -0.108}
{"sequence": "CTGCATAC", "PBM E-score": 0.113}
{"sequence": "ATGTCCTG", "PBM E-score": 0.0471}
{"sequence": "AAAATCAT", "PBM E-score": -0.0452}
{"sequence": "ACCTAGCT", "PBM E-score": -0.137}
{"sequence": "AATGGAGT", "PBM E-score": 0.0222}
{"sequence": "GATCTTTA", "PBM E-score": 0.171}
{"sequence": "AGGTCTTC", "PBM E-score": -0.27}
{"sequence": "ATTGGATG", "PBM E-score": 0.0741}
{"sequence": "GACCACCA", "PBM E-score": 0.0215}
{"sequence": "AATTTCTA", "PBM E-score": 0.082}
{"sequence": "GTGCCCCA", "PBM E-score": -0.126}
{"sequence": "AAACCCGG", "PBM E-score": 0.0908}
{"sequence": "TCAGACAA", "PBM E-score": 0.0781}
{"sequence": "GGGCGATA", "PBM E-score": -0.115}
{"sequence": "CAGATAAA", "PBM E-score": 0.148}
{"sequence": "CGGTCTGA", "PBM E-score": 0.11}
{"sequence": "GTTGCCAA", "PBM E-score": 0.0119}
{"sequence": "AATATCGG", "PBM E-score": 0.137}
{"sequence": "AATCGCAG", "PBM E-score": 0.16}
{"sequence": "ACTATTAA", "PBM E-score": 0.175}
{"sequence": "AGAAATGC", "PBM E-score": 0.0286}
{"sequence": "CGAGGAAC", "PBM E-score": 0.269}
{"sequence": "ATTCTGGA", "PBM E-score": 0.00838}
{"sequence": "AAGCAGCA", "PBM E-score": -0.124}
{"sequence": "ATTAGTCA", "PBM E-score": 0.0975}
{"sequence": "GGCCATTA", "PBM E-score": 0.124}
{"sequence": "CAGTTGGC", "PBM E-score": -0.0547}
{"sequence": "ACGCGATA", "PBM E-score": 0.0412}
{"sequence": "CACATACG", "PBM E-score": -0.18}
{"sequence": "CGTGTACC", "PBM E-score": -0.031}
{"sequence": "AGGCTAAA", "PBM E-score": -0.0993}
{"sequence": "CACCGTTA", "PBM E-score": -0.0565}
{"sequence": "GGCGACAC", "PBM E-score": -0.175}
{"sequence": "CGTCTCGA", "PBM E-score": 0.043}
{"sequence": "AATGATTA", "PBM E-score": 0.159}
{"sequence": "AAGGATCC", "PBM E-score": -0.0151}
{"sequence": "AAATATTG", "PBM E-score": 0.204}
{"sequence": "GTCTATGA", "PBM E-score": 0.066}
{"sequence": "CCGGCAAG", "PBM E-score": 0.0731}
{"sequence": "AGTTCATC", "PBM E-score": 0.055}
{"sequence": "GGCGGGTA", "PBM E-score": -0.206}
{"sequence": "AAGGATGT", "PBM E-score": 0.0432}
{"sequence": "CAAAACAA", "PBM E-score": 0.0137}
{"sequence": "GACATTCC", "PBM E-score": -0.113}
{"sequence": "CACTCATG", "PBM E-score": 0.0199}
{"sequence": "CTTGCACC", "PBM E-score": 0.165}
{"sequence": "ACGCACAG", "PBM E-score": 0.186}
{"sequence": "CCGCCCAC", "PBM E-score": 0.015}
{"sequence": "AGGCGCTA", "PBM E-score": -0.109}
